Source: PMC12713088, “Arabidopsis TRB Proteins Form Two Closely Related Complexes to Mediate H3K4me3 Demethylation and Transcriptional Repression” (Advanced Science, 2025)

Amino acid sequences for entries named in this document (tags omitted). A change or cut given only in a name is not applied to a line headed by its entry.
UniProt Q9SHL4: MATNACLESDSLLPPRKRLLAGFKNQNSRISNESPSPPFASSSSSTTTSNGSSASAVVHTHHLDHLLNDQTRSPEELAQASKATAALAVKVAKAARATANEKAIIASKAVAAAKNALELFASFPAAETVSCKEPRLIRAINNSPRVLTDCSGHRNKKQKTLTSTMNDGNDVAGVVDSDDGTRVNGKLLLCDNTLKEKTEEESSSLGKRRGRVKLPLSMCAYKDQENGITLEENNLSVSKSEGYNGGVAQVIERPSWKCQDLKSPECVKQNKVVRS
UniProt Q9LRN9: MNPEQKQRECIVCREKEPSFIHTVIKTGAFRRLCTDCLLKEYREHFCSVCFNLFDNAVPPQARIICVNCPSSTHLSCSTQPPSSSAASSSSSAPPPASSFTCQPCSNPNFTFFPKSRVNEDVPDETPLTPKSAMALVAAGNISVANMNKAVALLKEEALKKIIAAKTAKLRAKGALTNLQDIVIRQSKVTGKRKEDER
UniProt Q9FKY2: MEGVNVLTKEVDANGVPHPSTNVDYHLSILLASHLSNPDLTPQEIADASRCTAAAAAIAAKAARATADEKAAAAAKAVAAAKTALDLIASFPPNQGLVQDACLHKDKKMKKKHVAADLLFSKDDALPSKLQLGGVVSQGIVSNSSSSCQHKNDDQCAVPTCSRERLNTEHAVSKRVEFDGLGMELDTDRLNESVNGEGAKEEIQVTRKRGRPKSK
UniProt O81784: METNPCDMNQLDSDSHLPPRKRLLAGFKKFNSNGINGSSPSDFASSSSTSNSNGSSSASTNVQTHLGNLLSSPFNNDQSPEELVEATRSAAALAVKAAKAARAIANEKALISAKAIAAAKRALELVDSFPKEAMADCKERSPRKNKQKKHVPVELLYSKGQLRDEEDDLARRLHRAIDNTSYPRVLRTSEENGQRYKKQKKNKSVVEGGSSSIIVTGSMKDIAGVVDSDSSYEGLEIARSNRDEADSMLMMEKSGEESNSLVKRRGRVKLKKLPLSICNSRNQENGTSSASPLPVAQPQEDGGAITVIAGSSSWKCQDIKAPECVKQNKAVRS

T1: TELOMERE REPEAT BINDING PROTEIN 1 (TRB1), in Arabidopsis (AP-MS) (Arabidopsis thaliana) (UniProt Q8VWK4)
T1 sequence: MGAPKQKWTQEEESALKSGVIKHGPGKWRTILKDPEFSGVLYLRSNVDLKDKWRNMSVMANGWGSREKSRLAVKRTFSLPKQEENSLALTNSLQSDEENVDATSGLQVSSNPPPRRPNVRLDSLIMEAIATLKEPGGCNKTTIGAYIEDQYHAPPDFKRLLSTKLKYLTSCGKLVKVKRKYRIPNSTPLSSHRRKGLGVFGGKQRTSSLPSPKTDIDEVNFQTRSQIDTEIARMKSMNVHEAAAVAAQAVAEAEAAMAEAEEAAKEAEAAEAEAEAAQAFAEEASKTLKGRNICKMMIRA

T2: TELOMERE REPEAT BINDING PROTEIN 2 (TRB2), in Arabidopsis (AP-MS) (Arabidopsis thaliana) (UniProt Q9FJW5)
T2 sequence: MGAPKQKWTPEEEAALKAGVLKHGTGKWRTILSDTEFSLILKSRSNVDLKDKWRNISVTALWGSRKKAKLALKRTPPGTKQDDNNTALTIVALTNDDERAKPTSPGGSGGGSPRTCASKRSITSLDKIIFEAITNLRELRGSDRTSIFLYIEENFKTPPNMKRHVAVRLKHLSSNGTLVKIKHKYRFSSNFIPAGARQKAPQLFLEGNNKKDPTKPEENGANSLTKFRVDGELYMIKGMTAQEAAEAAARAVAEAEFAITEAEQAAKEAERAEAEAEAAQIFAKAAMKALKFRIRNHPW

T3: TELOMERE REPEAT BINDING PROTEIN 3 (TRB3), in Arabidopsis (AP-MS) (Arabidopsis thaliana) (UniProt Q9M2X3)
T3 sequence: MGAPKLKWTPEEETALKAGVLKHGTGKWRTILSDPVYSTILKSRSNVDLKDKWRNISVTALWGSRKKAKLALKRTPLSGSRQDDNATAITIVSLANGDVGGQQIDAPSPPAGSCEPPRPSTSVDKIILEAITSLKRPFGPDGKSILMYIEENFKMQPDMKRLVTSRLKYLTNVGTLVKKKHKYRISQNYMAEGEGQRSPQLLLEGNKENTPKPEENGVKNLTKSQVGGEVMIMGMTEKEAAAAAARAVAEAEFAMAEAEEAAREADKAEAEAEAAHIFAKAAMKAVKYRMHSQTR


Experiments:
Experiment in all cases: affinity purification with mass spectrometry; Flag-tagged bait from transgenic Arabidopsis (12-day-old seedlings and flower tissues) on anti-FLAG M2 agarose, 4 °C overnight; 50 mM Tris-HCl pH 7.5, 150 mM NaCl, 5 mM MgCl2, 10% glycerol, 0.1% NP-40; eluted with 3xFLAG peptide
[1] = biological target: T1, TELOMERE REPEAT BINDING PROTEIN 1 (TRB1), in Arabidopsis (AP-MS) (Arabidopsis thaliana)
[2] = biological target: T2, TELOMERE REPEAT BINDING PROTEIN 2 (TRB2), in Arabidopsis (AP-MS) (Arabidopsis thaliana)
[3] = biological target: T3, TELOMERE REPEAT BINDING PROTEIN 3 (TRB3), in Arabidopsis (AP-MS) (Arabidopsis thaliana)
[4] = biological target: HELIX-TURN-HELIX PROTEIN 1 (HTH1), in Arabidopsis (AP-MS) (Arabidopsis thaliana) (UniProt Q9SHL4)
[5] = biological target: ZINC-FINGER-DOMAIN PROTEIN 2 (ZDP2), in Arabidopsis (AP-MS) (Arabidopsis thaliana) (UniProt Q9LRN9)
[6] = biological target: HELIX-TURN-HELIX PROTEIN 3 (HTH3), in Arabidopsis (AP-MS) (Arabidopsis thaliana) (UniProt Q9FKY2)
[7] = biological target: HELIX-TURN-HELIX PROTEIN 2 (HTH2), in Arabidopsis (AP-MS) (Arabidopsis thaliana) (UniProt O81784)

binding [1] | binding [2] | binding [3] | binding [4] | binding [5] | binding [6] | binding [7] | Molecule
binds | binds | binds | – | – | – | – | HELIX-TURN-HELIX PROTEIN 2 (HTH2), in Arabidopsis (AP-MS) (from UniProt O81784)
binds | binds | binds | – | – | – | – | HELIX-TURN-HELIX PROTEIN 3 (HTH3), in Arabidopsis (AP-MS) (from UniProt Q9FKY2)
– | – | – | binds | binds | binds | binds | TELOMERE REPEAT BINDING PROTEIN 1 (TRB1), in Arabidopsis (AP-MS) (protein, UniProt Q8VWK4 1-300) MGAPKQKWTQEEESALKSGVIKHGPGKWRTILKDPEFSGVLYLRSNVDLKDKWRNMSVMANGWGSREKSRLAVKRTFSLPKQEENSLALTNSLQSDEENVDATSGLQVSSNPPPRRPNVRLDSLIMEAIATLKEPGGCNKTTIGAYIEDQYHAPPDFKRLLSTKLKYLTSCGKLVKVKRKYRIPNSTPLSSHRRKGLGVFGGKQRTSSLPSPKTDIDEVNFQTRSQIDTEIARMKSMNVHEAAAVAAQAVAEAEAAMAEAEEAAKEAEAAEAEAEAAQAFAEEASKTLKGRNICKMMIRA
– | – | – | binds | binds | binds | binds | TELOMERE REPEAT BINDING PROTEIN 3 (TRB3), in Arabidopsis (AP-MS) (protein, UniProt Q9M2X3 1-295) MGAPKLKWTPEEETALKAGVLKHGTGKWRTILSDPVYSTILKSRSNVDLKDKWRNISVTALWGSRKKAKLALKRTPLSGSRQDDNATAITIVSLANGDVGGQQIDAPSPPAGSCEPPRPSTSVDKIILEAITSLKRPFGPDGKSILMYIEENFKMQPDMKRLVTSRLKYLTNVGTLVKKKHKYRISQNYMAEGEGQRSPQLLLEGNKENTPKPEENGVKNLTKSQVGGEVMIMGMTEKEAAAAAARAVAEAEFAMAEAEEAAREADKAEAEAEAAHIFAKAAMKAVKYRMHSQTR

The remaining lines, values behind:

Molecule | binding [1] | binding [2] | binding [3] | binding [4] | binding [5] | binding [6] | binding [7]
HELIX-TURN-HELIX PROTEIN 1 (HTH1), in Arabidopsis (AP-MS) (from UniProt Q9SHL4) | binds | binds | binds | – | – | – | –
ZINC-FINGER-DOMAIN PROTEIN 2 (ZDP2), in Arabidopsis (AP-MS) (from UniProt Q9LRN9) | binds | binds | binds | – | – | – | –
TELOMERE REPEAT BINDING PROTEIN 2 (TRB2), in Arabidopsis (AP-MS) (protein, UniProt Q9FJW5 1-299) MGAPKQKWTPEEEAALKAGVLKHGTGKWRTILSDTEFSLILKSRSNVDLKDKWRNISVTALWGSRKKAKLALKRTPPGTKQDDNNTALTIVALTNDDERAKPTSPGGSGGGSPRTCASKRSITSLDKIIFEAITNLRELRGSDRTSIFLYIEENFKTPPNMKRHVAVRLKHLSSNGTLVKIKHKYRFSSNFIPAGARQKAPQLFLEGNNKKDPTKPEENGANSLTKFRVDGELYMIKGMTAQEAAEAAARAVAEAEFAITEAEQAAKEAERAEAEAEAAQIFAKAAMKALKFRIRNHPW | – | – | – | binds | binds | binds | binds

These are yes or no findings as the source states them, for the method shown. In cells and extracts the contact can be indirect. Here binding means that the protein was enriched with, or labelled near, the bait; the list need not be complete.
